# Assay results: PubChem BioAssay AID1347075 (National Center for Advancing Translational Sciences (NCATS), 2019)
# The whole screen tested about 400,000 compounds, of which about 5,500 (1.4%) were called active. Inconclusive means that the source gave no clear call. Such entries were picked first, then a sample of the others. Calls follow the shape of the dose curve; as a rule, active = well fitted cell-killing curve with a large enough effect; inconclusive = small, poorly fitted or top-dose-only effect, or effect the other way; inactive = flat fitted curve, though single readings scatter. Potencies beside an inconclusive call are fits to weak or partial responses and may not hold up.
# Assay: qHTS assay for MDR1-selective chemotherapeutics: Primary screen using the parental adenocarcinoma cell KB-3-1; also: nearly all actives have a fitted effect of over 60% in size
# Details: KB-3-1 viability, CellTiter-Glo ATP luminescence, 72 h; activity change, negative = cytotoxic: at 46.1 µM (top of the series)
# How it was run: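 Cells are dispensed, compounds pinned in, plates held at 37 °C for 72 h, then CellTiter-Glo is added and luminescence read after 10 minutes. Cell line: parental KB-3-1 in phenol-red-free DMEM, 10% FBS.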
# % is scaled to controls: 0 for no effect and ±100 for the full control effect; potency is read from the fitted curve at half-maximal effect.
Structure (SMILES),Potency,"activity change, negative = cytotoxic"
Nc1ccncc1N,active: 20.6 µM,–
Cc1cc(C)cc(NC(=O)COC(=O)COc2cccc3c2OC(C)(C)C3)c1,"inconclusive: 29.1 µM [rising, single point]",–
COc1ccc(C(=O)C2CCCN(Cc3ccc(C#CCCO)cc3)C2)cc1F (configuration not stated),inactive,–
Cc1ccc2c(c1)c1c(n2CC(O)Cn2c(C)nc3ccccc32)CCCC1 (configuration not stated),"inconclusive: 25.9 µM [cytotoxic, partial curve, poor fit]",–
O=C(NCC(F)(F)F)[C@H]1O[C@@H](n2ccc(=O)[nH]c2=O)[C@H](O)[C@@H]1O,"inconclusive: 29.1 µM [cytotoxic, single point]",–
O=C(C[n+]1cc(-c2ccccc2)n2c1CCC2)N1c2ccccc2Sc2ccccc21,active: 6.51 µM,–
Cc1occc1-c1nnc(SCC(=O)c2c[nH]c3ccccc23)n1C,"inconclusive: 14.6 µM [rising, partial curve, poor fit]",–
O=C(/C=C/c1ccco1)NC(=S)Nc1cccc(-c2nc3ccccc3o2)c1,"inconclusive: 7.31 µM [cytotoxic, partial curve, poor fit]",–
CCN(CC)CCNC(=O)CCCCn1c(=S)[nH]c2c([nH]c3ccc(OC)cc32)c1=O,inactive,–
COc1ccc(NC(=O)CN2CCN(CC(=O)Nc3ccccc3OC)CC2)c(OC)c1,inactive,–
C=CCn1c(C)c(C(C)=O)cc(NC(=O)c2ccccc2)c1=O,"inconclusive: 16.4 µM [rising, partial curve, poor fit]",–
CC1(C)CC2CC(C)(CN2C(=O)COC(=O)c2ccccc2C(F)(F)F)C1 (configuration not stated),inactive,–
CC(C)N=C1CCCC1C(=S)SSC(=S)C1CCCC1=NC(C)C (configuration not stated),"inconclusive: 1.64 µM [cytotoxic, full curve, poor fit]",–
CCC(=O)N1CCCC(C)(C(=O)NS(=O)(=O)c2ccccc2Cl)C1 (configuration not stated),–,inconclusive: 0%
O=C(CC1c2cc(F)ccc2C=C(c2ccsc2)N1c1ccc(C#CCCO)cc1)c1ccco1 (configuration not stated),"inconclusive: 18.4 µM [cytotoxic, single point]",–
O=C(N/N=C/c1cccs1)c1cc(C2CC2)nc2ccccc12,active: 18.4 µM,–
C/C(=N\NC(=O)C12CCC(C)(C(=O)O1)C2(C)C)c1ccccc1O (configuration not stated),"inconclusive: 16.4 µM [cytotoxic, partial curve, poor fit]",–
COc1cccc(-c2nnc(-c3ccc4ccccc4c3)o2)c1,–,inconclusive: -3.83%
CC(Nc1cc(C)cc(C)c1)=[N+](C)CCNS(=O)(=O)c1ccc(Cl)cc1,inactive,–
O=C(O)c1ccc(CS(=O)(=O)c2cccc(C(F)(F)F)c2)o1,inactive,–
CCC(C)NC(=O)COC(=O)c1csc2c1CCCC2 (configuration not stated),active: 23.1 µM,–
CCC(C)N(CC(=O)Nc1cccc(C)c1C)C(=O)CCl (configuration not stated),"inconclusive: 29.1 µM [cytotoxic, single point]",–
NS(=O)(=O)c1ccc(NC(=S)NC(=O)c2cccs2)cc1,inactive,–
COc1cc(OC)c(N(C)S(=O)(=O)c2cccc(C(=O)OCC(=O)NCc3ccco3)c2)cc1Cl,inactive,–

Structure (SMILES),Potency,"activity change, negative = cytotoxic"
CC(C)(C)NC(=O)Cn1c(SCC(=O)N2CCCCCC2)nc2ccccc21,"inconclusive: 18.4 µM [cytotoxic, single point]",–
COc1ccc(Cl)cc1-c1nc(N)nc(NC2CCCCC2)n1,inactive,–
Cc1ccc(S(=O)(=O)N2C[C@@H]3CCCC[C@@H]3[C@@H](C)[C@H]2c2cn(Cc3ccccc3)c3ncccc23)cc1,"inconclusive: 6.51 µM [cytotoxic, full curve, poor fit]",–
Cc1ccc(S(=O)(=O)N2C[C@]3(O)C[C@@H]4C(=O)N(c5ccccc5)C(=O)[C@@H]4C[C@]3(OC(=O)NCC3CCCCC3)C2)cc1,"inconclusive: 9.2 µM [rising, partial curve]",–
Cc1ccc(CCNC(=O)C2CCN(S(=O)(=O)c3ccc4c(c3)NC(=O)C(C)S4)CC2)cc1 (configuration not stated),"inconclusive: 23.1 µM [cytotoxic, partial curve, poor fit]",–
C=C(C)COc1ccc(-c2n[nH]c(C)c2-c2ccc(OC)cc2)c(O)c1,"inconclusive: 25.9 µM [cytotoxic, single point]",–
Cc1cc(-c2nnnn2-c2ccc(F)cc2)no1,"inconclusive: 23.1 µM [cytotoxic, partial curve, poor fit]",–
O=C(c1cc(S(=O)(=O)NCc2ccco2)ccc1Br)N1CCOCC1,inactive,–
N#Cc1nnn2c1nc(N)c1c(Cl)cccc12,active: 1.3 µM,–
O=c1[nH]c2ccccc2n1C1CCN(CCOc2ccccc2)CC1,"inconclusive: 32.6 µM [cytotoxic, single point]",–
CCCCN(C(=O)c1ccc(C)o1)c1c(N)n(CC(C)C)c(=O)[nH]c1=O,inactive,–
CCCC(C)C(=O)Nc1ccc(S(=O)(=O)Nc2nccs2)cc1 (configuration not stated),inactive,–
O=C(C1CC(=O)N(c2ccc3c(c2)OCCO3)C1)N1CCN(Cc2ccccc2F)CC1 (configuration not stated),inactive,–
Cc1cccc(C)c1NC(=O)CSCC(=O)c1ccc(O)c(O)c1,"inconclusive: 29.1 µM [cytotoxic, single point]",–
O=C(C[n+]1ccncc1Cl)c1ccc(F)cc1,inactive,–
CCOc1cc([N+](=O)[O-])cc(/C=N/NC(=O)c2c(-c3ccccc3)noc2C)c1O,"inconclusive: 23.1 µM [cytotoxic, single point]",–
O=C(c1ccccc1)c1ccc(NCCCn2ccnc2)c([N+](=O)[O-])c1,"inconclusive: 18.4 µM [cytotoxic, single point]",–
COc1ccc(C(=O)c2nc3c(n2O)CCCCC3)cc1,inactive,–
CCCCN1C(N)=NC[C@@H]1CC1CCCCC1,"inconclusive: 10.3 µM [cytotoxic, partial curve]",–
Cc1cccc(N(C(=O)c2csnn2)C(C(=O)NC2CCCCC2)c2ccncc2)c1 (configuration not stated),"inconclusive: 2.59 µM [rising, partial curve, poor fit]",–
CC1CC(C)CN(C(=O)CSc2nnc(N)s2)C1 (configuration not stated),inactive,–
COc1cc2ccc(-c3ccc4ccccc4n3)cc2cc1OC,"inconclusive: 3.66 µM [rising, partial curve]",–
COC(=O)CCCC(=O)N1CCC(CO)(CCc2ccccc2)CC1,"inconclusive: 0.0517 µM [cytotoxic, full curve]",–
Cc1ccc(N=C2SC(C(=O)Nc3ccc(OC(F)(F)F)cc3)C(N)=C2C(=O)Nc2c(C)cc(C)cc2C)cc1 (configuration not stated),"inconclusive: 18.4 µM [cytotoxic, single point]",–

# Whole records from above.
# CCOc1cc([N+](=O)[O-])cc(/C=N/NC(=O)c2c(-c3ccccc3)noc2C)c1O in the list: Potency: inconclusive: 23.1 µM [cytotoxic, single point]
# CC(C)N=C1CCCC1C(=S)SSC(=S)C1CCCC1=NC(C)C (configuration not stated) in the list: Potency: inconclusive: 1.64 µM [cytotoxic, full curve, poor fit]

# Next records:

Structure (SMILES),Potency,"activity change, negative = cytotoxic"
CC(=NNC(=O)c1ccncc1)c1ccccc1O,"inconclusive: 2.31 µM [cytotoxic, full curve, poor fit]",–
O=c1c2ccccc2[nH]c(=S)n1CCCN1CCN(c2ccccc2)CC1,"inconclusive: 14.6 µM [cytotoxic, partial curve, poor fit]",–
COc1ccccc1NC(=S)N(Cc1ccco1)Cc1cc2cc(C)c(C)cc2[nH]c1=O,"inconclusive: 0.731 µM [cytotoxic, full curve, poor fit]",–
COc1cc(NC(=O)CN(C)Cc2cccc(F)c2)c(C)cc1[N+](=O)[O-],"inconclusive: 0.291 µM [cytotoxic, full curve]",–
O=C(Nc1ccccc1)C1Cc2c(-c3ccco3)ccnc2O1 (configuration not stated),inactive,–
CC(C)(C)c1ccccc1OCCOCCN1CCCCCC1,inactive,–
Cc1ccc(C2(CCNS(=O)(=O)c3ccc(C)cc3)CCOC(C(C)C)C2)cc1 (configuration not stated),"inconclusive: 29.1 µM [cytotoxic, single point]",–
Cn1c(SCCOc2ccc(F)cc2)nnc1-c1ccncc1,"inconclusive: 1.16 µM [cytotoxic, partial curve, poor fit]",–
COc1ccc(CC(=O)N2CC(=O)Nc3ccc(Br)cc3C2c2ccc(F)cc2)cc1OC (configuration not stated),inactive,–
CC(=O)N1CCCc2cc(S(=O)(=O)NCc3ccc(N(C)C)cc3)ccc21,"inconclusive: 18.4 µM [cytotoxic, partial curve, poor fit]",–
CN=c1scc(-c2cccs2)n1/N=C/c1ccccc1O,"inconclusive: 16.4 µM [cytotoxic, partial curve]",–
CC(C)CN(C(=O)c1ccc(S(=O)(=O)N2CCCC2)cc1)C1CCS(=O)(=O)C1 (configuration not stated),inactive,–
Clc1nc(Cl)c2ncn(-c3ccccc3)c2n1,active: 18.4 µM,–
Clc1cccc(-c2cccc3nccn23)c1Cl,inactive,–
CC(=O)NC(CC(=O)OCC(=O)N1CCN(S(=O)(=O)c2ccc(Cl)cc2)CC1)c1ccccc1 (configuration not stated),inactive,–
COc1ccc(NC(=O)C2Cc3c(-c4cccc(F)c4)ccnc3O2)cc1 (configuration not stated),"inconclusive: 20.6 µM [cytotoxic, single point]",–
O=C(N/N=C/c1c[nH]c2ccccc12)c1cc(-c2ccc3ccccc3c2)n[nH]1,"inconclusive: 18.4 µM [cytotoxic, single point]",–
OCCC1CN(Cc2cc3c(cc2Cl)OCO3)CCN1Cc1ccccc1 (configuration not stated),inactive,–
Cc1ccc(-c2c[n+](Cc3ccc(Cl)c(Cl)c3)c3n2CCC3)cc1,active: 3.66 µM,–
O=C(c1cnc(N2CCOCC2)c2ccccc12)N1CCN(c2ccc(F)cc2)CC1,inactive,–
COc1ccc(C2C=C(c3ccc(C)cc3)Nc3ncnn32)cc1 (configuration not stated),"inconclusive: 29.1 µM [cytotoxic, partial curve, poor fit]",–
COc1cc(Nc2ccc(S(=O)(=O)N3CCN(C)CC3)cc2[N+](=O)[O-])cc(OC)c1,inactive,–
Cn1cncc1C#Cc1c(C=O)n(C)c2ccccc12,"inconclusive: 29.1 µM [cytotoxic, single point]",–
CCOC(=O)c1cc2c(ccn2C)n1CC(=O)N1CCC(C)CC1,active: 23.1 µM,–
